The values below come from ChEMBL document CHEMBL1949514, “Design, Synthesis, and Antitumor Activity of 4-Halocolchicines and Their Pro-drugs Activated by Cathepsin B” (ACS Med Chem Lett, 2011).

What is called IC50 is the point on the concentration scale where inhibition reaches its midpoint.

For one assay, the system named is HT-29. The assay can be described thus: Cytotoxicity against human HT-29 cells after 96 hrs using tetracolor one. Type of assay: functional, cell-based. To be noted: HT-29, 96 h.
The test system of a further assay is A549. The assay can be described thus: Cytotoxicity against human A549 cells after 96 hrs using tetracolor one. Format: functional, cell-based. The settings on record: A549, 96 h.
The test system of assay [1] is HUVEC. The assay is described as follows: Cytotoxicity against human HUVEC cells after 96 hrs using tetracolor one. Format: ADME, cell-based.
The subject of assay [2] is HUVEC. The assay can be described thus: Selectivity ratio of IC50 for human HUVEC cells to IC50 for human HT-29 cells.

On to `COc1cc2c(c(OC)c1OC)-c1ccc(OC)c(=O)cc1[C@@H](N)CC2` [DEACETYLCOLCHICINE], for which the IC50 with HT-29 was determined as 0.025 µM; with A549, 0.036 µM; with HUVEC [1] it was 0.034 µM. In addition, the “Ratio IC50” value with HUVEC [2] was found to be 1.4.
